Assay results as given in patent publication US12665203B2, “Organo-metallic analytes for nonaqueous redox flow batteries” (The Regents of the University of California, priority 2020, dated 2026).
Where two headings read alike, the source gives them in different places.

Tests used:
[1] = symmetric NRFB, two electrons per side, cited from earlier work
[2] = Charging/discharging, asymmetric H-cell, anion exchange membrane separator
Description: Complex 2b was also tested as an analyte in an asymmetric cell configuration because this allowed us to achieve a cell design where up to four electrons are stored during each charge and discharge cycle. Using an AEM as separator, potentials and currents were initially chosen to maximize the energy density of the cell: storing 4 electrons in the battery. Over 10 cycles and 45 h, a Coulombic efficiency of 98% was observed (FIGS. 17A-C). […] An asymmetric cell with 2b functioning as a four-electron analyte could be revisited as AEM technology is refined.
Charge-discharge studies were performed inside of a glovebox under an inert atmosphere using a CH Instruments Electrochemical Analyzer Model 1400. The custom H-cell was designed by Adams and Chittenden (FIGS. 21A-B and 22) with compartments separated by an AMI-7001S Anion exchange membrane (Membrane International Inc.) or glass frit. If a membrane was used, it was soaked in 0.5 M nBu4NBF4MeCN electrolyte solution for 48 h prior to use. […] In the asymmetric studies, the counter compartment contained only 3.5 mL 0.5 M nBu4NBF4MeCN electrolyte solution, and an isomolded graphite rod counter electrode. […]

[3] = Charging/discharging, asymmetric H-cell, glass frit separator; conditions: 21 h
[4] = Charging/discharging, symmetric NRFB H-cell, glass frit separator; conditions: for Coulombic efficiency: 100 cycles, 450 h
Description: Complex 2b was tested in both symmetric and asymmetric NRFB configurations and in both cases, an anion exchange membrane (AEM), and a glass frit as separator between the working electrode and counter electrode compartments were trialed. […] A current of 0.2 mA for the charge and 0.2 mA for the discharge were chosen as described below. Two consecutive plateaus are observed for each charging and discharging process, indicative of two electron transfer processes (FIGS. 12A-B and 13).
The first plateau at −0.97 V is determined by the oxidation of 2b^− to 2b in the cathodic compartment, and the concurrent reduction of 2b^− to 2b^2− in the anodic compartment. The second plateau at −0.21 V is determined by the oxidation of 2b to 2b^+ in the cathodic compartment, with concurrent reduction of 2b^2− to 2b^3− in the anodic compartment. Upon discharge, the reduction of 2b^+ to 2b and 2b to 2b^− in the cathodic compartment results in a small potential drop, with discharging plateaus of −0.98 and −0.24 V, respectively.
Charge-discharge studies were performed inside of a glovebox under an inert atmosphere using a CH Instruments Electrochemical Analyzer Model 1400. The custom H-cell was designed by Adams and Chittenden (FIGS. 21A-B and 22) with compartments separated by an AMI-7001S Anion exchange membrane (Membrane International Inc.) or glass frit. If a membrane was used, it was soaked in 0.5 M nBu4NBF4MeCN electrolyte solution for 48 h prior to use. […] In the asymmetric studies, the counter compartment contained only 3.5 mL 0.5 M nBu4NBF4MeCN electrolyte solution, and an isomolded graphite rod counter electrode. For the studies with a symmetric NRFB configuration, the first cycle was a galvanostatic charging of a concentrated solution of 2b to 2b^− (compounds shown in FIG. 2); 3.5 mL 0.5 M nBu4NBF4MeCN electrolyte solution was charged to the counter compartment, and 3.5 mL 15 mM 2b in 0.5 M nBu4NBF4MeCN electrolyte solution was charged to the working compartment. A 0.2 mA current was applied to the working compartment until a potential cut-off of −0.6 V was reached (approximately 2 hours). The electrolyte solution in the counter compartment was then discarded and 1.75 mL of the 15 mM 2b^− was charged to the counter compartment and both compartments were diluted to reach 3.5 mL of 7.5 mM 2b^−. […] Between experiments, the electrodes were soaked and sonicated with 1M HCl, followed by distilled water twice, then acetone. They were then dried at 100° C. for two hours prior to use.
Determination of 70% state of charge (SOC). Theoretical capacity of the cell=0.0215 mmol×96,485.33 sA/mol=2.07 sA=0.576 mAh 70% state of charge=0.403 mAh Galvanostatic charging current for 2 h at 70% SOC: 0.403 mAh/2 h=0.201 mA Galvanostatic discharging current for 2 h at 70% SOC: 0.403 mAh/2 h=0.201 mA where jp is the current density in A/cm^2, ne is the number of electrons (here ne=1), D0 is the diffusion coefficient (cm^2/s), C0 is the bulk concentration (mol/mL) and v is the scan rate (V/s). Straight lines fit to these plots indicate that the electron transfer events can be considered reversible.

For `COCCOCCOCCNc1ccc(NCCOCCOCCOC)c2c1C(=O)c1ccccc1C2=O` [(Me-TEG)2DAAQ], the Vcell ([1]; solvent DME) is given as 2.7 V.

In the case of `C1=Cc2nc1c(-c1ccccc1)c1ccc([nH]1)c(-c1ccccc1)c1nc(c(-c3ccccc3)c3ccc([nH]3)c2-c2ccccc2)C=C1` [H2TPP], the Vcell ([1]; solvent CH2Cl2) is listed as 2.8 V.

With [(I2P^−)2Al][OTf] [2b] the Coulombic efficiency ([2]; asymmetric NRFB configuration, up to four electrons stored, multiple cycles, separator not stated) was 96%, the Coulombic efficiency ([2]; asymmetric cell, AEM, storing 4 electrons, 10 cycles, 45 h) was 98% and the Coulombic efficiency ([3]; n=2, Vcell=1.6 V) was 93%. The Coulombic efficiency ([3]; n=3, Vcell=1.9 V) was 87%, the Coulombic efficiency ([3]; n=4, Vcell=2.1 V) was 98% and the “discharging plateau (first listed)” value ([4]; symmetric cell, glass frit) was −0.98 V. For the same compound, the “discharging plateau (second listed)” value ([4]; symmetric cell, glass frit) was −0.24 V, the first charging plateau ([4]; symmetric cell, glass frit) was −0.97 V and the second charging plateau ([4]; symmetric cell, glass frit) was −0.21 V. The Coulombic efficiency ([4]; symmetric cell, glass frit, 70% state of charge) was “over 97%”, the Coulombic efficiency ([4]; symmetric cell, glass frit, 70% state of charge, listed as [(I2P^−)2Al]^+) was 97% and the overall energy efficiency ([4]; symmetric cell, glass frit, steady decline over 25 cycles) was 90 to 70%. The “cycles over which charging and discharging remain stable” value ([4]; symmetric nonaqueous RFB configuration, 70% state of charge) was “over 100 cycles”.

For [bpy(COOMe)2]3Cr, the Vcell ([1]; solvent MeCN) is listed as 1.8 V.

In the case of phthalocyanine Mn-nitride [PcMnN], the Vcell ([1]; solvent MeCN) is given as 2.2 V.
